# Results from the supplement of paper PMC11438910.
# This is one part of the list. Only a few entries rise above the background.
# B1: 4-127.5 (protein)
# chain 1: QVQLQESGPGLVKPSETLSLTCAVSGYSISSGYGWSWIRQPPGKGLEWIGYIGGSDSSTNYNPSLKSRVTISKDTSKNQLSLKLRSVTAADTAVYYCGSRGAVAGLGGLDSWGQGLLVTVSS
# chain 2: QSVLTQPPSVSGAPGQRVTISCTGSSSNIGAGYGVQWYQQLPGTAPKLLIYENNKRPSGVFDRFSGSQSGTSGSLTITGLQSEDEADYYCQSYDSSLKAVLFGGGTRLTVL
# Legend:
# Assay in all cases: fluorescence intensity of antibody binding to polysaccharide-coupled beads; higher = stronger binding
# [1] = molecular target: pneumococcal polysaccharide Pn33B
# [2] = molecular target: pneumococcal polysaccharide Pn33C
# [3] = molecular target: pneumococcal polysaccharide Pn33D
# [4] = molecular target: pneumococcal polysaccharide Pn33F
# [5] = molecular target: pneumococcal polysaccharide Pn34
# [6] = molecular target: pneumococcal polysaccharide Pn35A
# [7] = molecular target: pneumococcal polysaccharide Pn35B
# [8] = molecular target: pneumococcal polysaccharide Pn35C
# [9] = molecular target: pneumococcal polysaccharide Pn35F
# [10] = molecular target: pneumococcal polysaccharide Pn36
# [11] = molecular target: pneumococcal polysaccharide Pn37
# [12] = molecular target: pneumococcal polysaccharide Pn38
# [13] = antibody concentration 2.8593 ng/mL
# [14] = antibody concentration 15.2894 ng/mL
# [15] = antibody concentration 81.7561 ng/mL
# [16] = antibody concentration 437.17 ng/mL
# [17] = antibody concentration 2337.65 ng/mL
# [18] = antibody concentration 12500 ng/mL
# [19] = antibody concentration 0.1 ng/mL
# [20] = antibody concentration 0.534724 ng/mL
binder,measurement,setting,value
B1,fluorescence intensity,[1]; [13],18 MFI
same,fluorescence intensity,[1]; [14],19 MFI
same,fluorescence intensity,[1]; [15],18.5 MFI
same,fluorescence intensity,[1]; [16],18.5 MFI
same,fluorescence intensity,[1]; [17],21.5 MFI
same,fluorescence intensity,[1]; [18],33 MFI
same,fluorescence intensity,[2]; [19],20 MFI
same,fluorescence intensity,[2]; [20],19 MFI
same,fluorescence intensity,[2]; [13],19.5 MFI
same,fluorescence intensity,[2]; [14],20.2 MFI
same,fluorescence intensity,[2]; [15],21 MFI
same,fluorescence intensity,[2]; [16],20.5 MFI
same,fluorescence intensity,[2]; [17],24.5 MFI
same,fluorescence intensity,[2]; [18],72.5 MFI
same,fluorescence intensity,[3]; [19],16.5 MFI
same,fluorescence intensity,[3]; [20],17.5 MFI
same,fluorescence intensity,[3]; [13],16.5 MFI
same,fluorescence intensity,[3]; [14],16.8 MFI
same,fluorescence intensity,[3]; [15],17.5 MFI
same,fluorescence intensity,[3]; [16],17.8 MFI
same,fluorescence intensity,[3]; [17],20.5 MFI
same,fluorescence intensity,[3]; [18],33.5 MFI
same,fluorescence intensity,[4]; [19],14 MFI
same,fluorescence intensity,[4]; [20],13.5 MFI
same,fluorescence intensity,[4]; [13],14 MFI
same,fluorescence intensity,[4]; [14],14.5 MFI
same,fluorescence intensity,[4]; [15],13.5 MFI
same,fluorescence intensity,[4]; [16],14.5 MFI
same,fluorescence intensity,[4]; [17],21.5 MFI
same,fluorescence intensity,[4]; [18],174 MFI
same,fluorescence intensity,[5]; [19],15 MFI
same,fluorescence intensity,[5]; [20],16.2 MFI
same,fluorescence intensity,[5]; [13],15 MFI
same,fluorescence intensity,[5]; [14],15 MFI
same,fluorescence intensity,[5]; [15],15 MFI
same,fluorescence intensity,[5]; [16],13.5 MFI
same,fluorescence intensity,[5]; [17],16 MFI
same,fluorescence intensity,[5]; [18],19 MFI
same,fluorescence intensity,[6]; [19],16.5 MFI
same,fluorescence intensity,[6]; [20],16.5 MFI
same,fluorescence intensity,[6]; [13],17 MFI
same,fluorescence intensity,[6]; [14],17.5 MFI
same,fluorescence intensity,[6]; [15],18 MFI
same,fluorescence intensity,[6]; [16],19 MFI
same,fluorescence intensity,[6]; [17],28.5 MFI
same,fluorescence intensity,[6]; [18],136 MFI
same,fluorescence intensity,[7]; [19],19 MFI
same,fluorescence intensity,[7]; [20],17.5 MFI
same,fluorescence intensity,[7]; [13],18.5 MFI
same,fluorescence intensity,[7]; [14],19.5 MFI
same,fluorescence intensity,[7]; [15],18.5 MFI
same,fluorescence intensity,[7]; [16],19 MFI
same,fluorescence intensity,[7]; [17],25.8 MFI
same,fluorescence intensity,[7]; [18],83.5 MFI
same,fluorescence intensity,[8]; [19],20.5 MFI
same,fluorescence intensity,[8]; [20],19.5 MFI
same,fluorescence intensity,[8]; [13],18.5 MFI
same,fluorescence intensity,[8]; [14],20.5 MFI
same,fluorescence intensity,[8]; [15],21.2 MFI
same,fluorescence intensity,[8]; [16],20 MFI
same,fluorescence intensity,[8]; [17],22 MFI
same,fluorescence intensity,[8]; [18],29.5 MFI
same,fluorescence intensity,[9]; [19],21 MFI
same,fluorescence intensity,[9]; [20],21.5 MFI
same,fluorescence intensity,[9]; [13],20 MFI
same,fluorescence intensity,[9]; [14],17.5 MFI
same,fluorescence intensity,[9]; [15],19 MFI
same,fluorescence intensity,[9]; [16],19.5 MFI
same,fluorescence intensity,[9]; [17],22.5 MFI
same,fluorescence intensity,[9]; [18],26.8 MFI
same,fluorescence intensity,[10]; [19],17.2 MFI
same,fluorescence intensity,[10]; [20],16.5 MFI
same,fluorescence intensity,[10]; [13],15 MFI
same,fluorescence intensity,[10]; [14],16 MFI
same,fluorescence intensity,[10]; [15],16.8 MFI
same,fluorescence intensity,[10]; [16],15.5 MFI
same,fluorescence intensity,[10]; [17],18.5 MFI
same,fluorescence intensity,[10]; [18],46.2 MFI
same,fluorescence intensity,[11]; [19],25.5 MFI
same,fluorescence intensity,[11]; [20],27 MFI
same,fluorescence intensity,[11]; [13],26.5 MFI
same,fluorescence intensity,[11]; [14],27 MFI
same,fluorescence intensity,[11]; [15],26.8 MFI
same,fluorescence intensity,[11]; [16],29.5 MFI
same,fluorescence intensity,[11]; [17],45 MFI
same,fluorescence intensity,[11]; [18],342 MFI
same,fluorescence intensity,[12]; [19],27 MFI
same,fluorescence intensity,[12]; [20],26 MFI
same,fluorescence intensity,[12]; [13],26 MFI
same,fluorescence intensity,[12]; [14],25.5 MFI

# A different layout for part of the listing above.
binder | measurement | setting | value
B1 | fluorescence intensity | [2]; [18] | 72.5 MFI
same | fluorescence intensity | [3]; [17] | 20.5 MFI
same | fluorescence intensity | [5]; [17] | 16 MFI
same | fluorescence intensity | [7]; [19] | 19 MFI
same | fluorescence intensity | [8]; [17] | 22 MFI
same | fluorescence intensity | [11]; [13] | 26.5 MFI
